System: CYPs–UGT1A1 KI-HepG2 cells
Description: The HepG2 cells were seeded in 96-well plates at 1.0 × 10^4 cells/well. […] After 24 h, to examine the cell viability, we performed a WST-8 (2-(2-methoxy-4-nitrophenyl)-3-(4-nitrophenyl)-5-(2,4-disulfophenyl)-2H-tetrazolium, monosodium salt) assay by using Cell Count Reagent SF according to the manufacturer’s instructions. The cell viability was calculated as the percentage of that in the cells treated with a vehicle only.
After 24 h, cell viability was examined by WST-8 assay. The cell viability was calculated as a percentage of the number of cells after treatment with a solvent only. The results shown are means ± SD of three technical replicates.

CCCCc1oc2ccccc2c1C(=O)c1cc(I)c(OCCN(CC)CC)c(I)c1 [amiodarone]
Cell viability of CYPs–UGT1A1 KI-HepG2 cells compared with WT-HepG2 cells: lower

Source: paper PMC9140068, “Generation of HepG2 Cells with High Expression of Multiple Drug-Metabolizing Enzymes for Drug Discovery Research Using a PITCh System” (Cells, 2022)
